The test deals with T1, myc-endoglin (UniProt P17813).
T1 sequence (looked up): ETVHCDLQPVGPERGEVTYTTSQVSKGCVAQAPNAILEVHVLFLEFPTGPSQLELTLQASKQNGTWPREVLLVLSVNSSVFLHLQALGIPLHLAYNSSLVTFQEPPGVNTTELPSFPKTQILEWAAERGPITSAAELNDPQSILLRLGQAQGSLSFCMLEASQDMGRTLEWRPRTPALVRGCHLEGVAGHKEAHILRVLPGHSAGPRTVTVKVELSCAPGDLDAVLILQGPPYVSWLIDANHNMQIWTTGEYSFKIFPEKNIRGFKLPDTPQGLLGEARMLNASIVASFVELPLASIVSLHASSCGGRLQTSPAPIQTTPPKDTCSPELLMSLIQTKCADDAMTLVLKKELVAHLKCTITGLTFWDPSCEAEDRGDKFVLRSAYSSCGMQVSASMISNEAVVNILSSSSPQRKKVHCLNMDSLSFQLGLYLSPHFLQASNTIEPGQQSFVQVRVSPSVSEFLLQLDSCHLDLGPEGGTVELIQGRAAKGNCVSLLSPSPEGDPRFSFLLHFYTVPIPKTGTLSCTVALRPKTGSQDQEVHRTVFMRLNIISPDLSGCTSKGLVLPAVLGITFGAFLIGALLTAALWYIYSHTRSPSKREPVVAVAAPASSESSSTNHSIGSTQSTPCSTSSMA
The experiment in a line: patch/FRAP on live COS7 cells.

These results are taken from US20240409627A1.

No constants are given. Whether binding was seen depends on the method and setting. A result given as binding can be weak or reduced; the word gives no strength. Tags and fused reporters may be left off the sequences shown.

Regarding “extracellularly tagged HA-ALK4 (human) (receptor)”, the binding result is recorded as “binds”.
